## Results of single-concentration screens

Amino acid sequences for entries named in this document (tags omitted). Residues count along the entry.
UniProt A4I591, 1-473: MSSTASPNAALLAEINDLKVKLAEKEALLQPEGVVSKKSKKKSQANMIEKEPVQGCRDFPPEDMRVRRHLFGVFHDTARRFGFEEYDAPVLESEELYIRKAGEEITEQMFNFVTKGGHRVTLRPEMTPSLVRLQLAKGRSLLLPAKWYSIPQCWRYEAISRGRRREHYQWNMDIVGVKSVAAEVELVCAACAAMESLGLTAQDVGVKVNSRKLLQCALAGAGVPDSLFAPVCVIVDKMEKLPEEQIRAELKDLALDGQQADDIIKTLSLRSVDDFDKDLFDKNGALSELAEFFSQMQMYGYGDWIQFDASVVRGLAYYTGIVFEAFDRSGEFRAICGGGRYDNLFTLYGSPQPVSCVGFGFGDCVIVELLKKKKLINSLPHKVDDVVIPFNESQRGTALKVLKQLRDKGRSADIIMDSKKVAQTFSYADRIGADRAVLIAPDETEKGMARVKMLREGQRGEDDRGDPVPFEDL
UniProt I6X8D2, whole entry: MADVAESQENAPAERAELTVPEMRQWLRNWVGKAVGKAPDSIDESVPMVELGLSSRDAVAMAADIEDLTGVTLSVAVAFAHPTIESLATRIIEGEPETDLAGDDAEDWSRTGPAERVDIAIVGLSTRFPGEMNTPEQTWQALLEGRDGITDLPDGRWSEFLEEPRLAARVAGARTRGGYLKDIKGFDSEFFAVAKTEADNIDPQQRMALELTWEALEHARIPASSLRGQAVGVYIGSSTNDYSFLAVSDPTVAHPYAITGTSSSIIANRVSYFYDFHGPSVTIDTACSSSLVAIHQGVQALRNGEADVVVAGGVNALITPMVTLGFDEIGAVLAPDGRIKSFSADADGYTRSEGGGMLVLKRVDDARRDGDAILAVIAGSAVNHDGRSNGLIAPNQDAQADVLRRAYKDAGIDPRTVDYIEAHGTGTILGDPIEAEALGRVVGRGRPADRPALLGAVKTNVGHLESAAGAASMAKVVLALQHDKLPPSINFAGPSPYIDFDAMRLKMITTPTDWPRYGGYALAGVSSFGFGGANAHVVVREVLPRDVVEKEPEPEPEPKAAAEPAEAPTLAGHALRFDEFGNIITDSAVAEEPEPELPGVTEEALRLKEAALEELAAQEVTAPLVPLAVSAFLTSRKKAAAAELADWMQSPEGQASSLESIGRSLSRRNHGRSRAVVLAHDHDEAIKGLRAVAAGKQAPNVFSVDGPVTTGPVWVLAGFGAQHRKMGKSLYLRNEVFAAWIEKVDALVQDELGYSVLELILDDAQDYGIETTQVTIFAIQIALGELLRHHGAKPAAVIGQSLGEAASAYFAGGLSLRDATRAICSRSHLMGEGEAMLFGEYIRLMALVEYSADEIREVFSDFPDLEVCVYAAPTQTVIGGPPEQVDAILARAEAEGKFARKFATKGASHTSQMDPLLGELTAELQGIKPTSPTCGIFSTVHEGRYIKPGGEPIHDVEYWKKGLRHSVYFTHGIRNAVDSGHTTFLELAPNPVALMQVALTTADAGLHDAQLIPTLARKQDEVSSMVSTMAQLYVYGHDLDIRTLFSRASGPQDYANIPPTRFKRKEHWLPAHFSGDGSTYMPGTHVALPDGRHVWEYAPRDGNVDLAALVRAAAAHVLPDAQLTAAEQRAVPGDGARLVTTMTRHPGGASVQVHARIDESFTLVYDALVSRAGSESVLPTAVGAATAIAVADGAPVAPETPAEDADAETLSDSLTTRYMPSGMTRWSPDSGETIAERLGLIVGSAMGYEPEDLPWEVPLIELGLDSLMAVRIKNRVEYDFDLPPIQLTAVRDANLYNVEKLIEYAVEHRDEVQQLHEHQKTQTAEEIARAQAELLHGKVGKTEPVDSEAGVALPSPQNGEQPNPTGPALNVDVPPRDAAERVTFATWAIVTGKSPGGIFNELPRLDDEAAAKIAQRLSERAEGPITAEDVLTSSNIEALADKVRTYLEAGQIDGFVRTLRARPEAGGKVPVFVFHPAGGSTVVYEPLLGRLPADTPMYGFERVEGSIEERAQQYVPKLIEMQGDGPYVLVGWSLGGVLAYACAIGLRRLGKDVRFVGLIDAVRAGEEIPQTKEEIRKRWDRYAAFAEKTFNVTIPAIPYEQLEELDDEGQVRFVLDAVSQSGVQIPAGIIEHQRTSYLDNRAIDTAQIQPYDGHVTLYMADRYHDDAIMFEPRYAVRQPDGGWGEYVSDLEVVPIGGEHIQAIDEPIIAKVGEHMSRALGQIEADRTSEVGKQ
UniProt P9WFT3, whole entry: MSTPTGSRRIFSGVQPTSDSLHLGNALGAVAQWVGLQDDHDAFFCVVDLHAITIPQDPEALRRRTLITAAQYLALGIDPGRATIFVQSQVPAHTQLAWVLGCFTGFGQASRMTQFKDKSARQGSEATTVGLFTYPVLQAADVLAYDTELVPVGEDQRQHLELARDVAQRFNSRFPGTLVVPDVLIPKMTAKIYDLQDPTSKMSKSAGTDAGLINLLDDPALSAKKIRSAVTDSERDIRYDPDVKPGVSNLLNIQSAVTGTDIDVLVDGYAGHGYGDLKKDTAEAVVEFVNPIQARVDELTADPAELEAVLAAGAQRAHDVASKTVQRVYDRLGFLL
UniProt Q4DA54, 1-478: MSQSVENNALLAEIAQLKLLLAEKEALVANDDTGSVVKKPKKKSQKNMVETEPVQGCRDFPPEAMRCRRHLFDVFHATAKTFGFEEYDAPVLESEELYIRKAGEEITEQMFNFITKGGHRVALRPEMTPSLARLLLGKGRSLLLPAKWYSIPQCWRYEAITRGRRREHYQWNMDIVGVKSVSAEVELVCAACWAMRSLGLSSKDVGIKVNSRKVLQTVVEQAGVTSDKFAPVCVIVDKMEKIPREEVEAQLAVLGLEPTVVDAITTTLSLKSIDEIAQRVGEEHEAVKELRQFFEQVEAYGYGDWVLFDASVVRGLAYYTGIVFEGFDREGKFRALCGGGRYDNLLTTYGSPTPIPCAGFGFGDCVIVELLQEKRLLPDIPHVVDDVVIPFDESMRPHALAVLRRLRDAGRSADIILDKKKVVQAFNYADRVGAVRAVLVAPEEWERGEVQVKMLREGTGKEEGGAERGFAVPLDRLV

The values are deposited in ChEMBL (CHEMBL3988442, “University of Dundee, Small-Polar-MMV Screening Library” (2021)).

LiHisRS: 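Enzyme assay of histidyl-tRNA synthetase; the read-out is not stated. Target: Histidine-tRNA ligase, Leishmania infantum (UniProt A4I591). Tested at 30 µM. Higher reads as stronger inhibition (inferred: compounds with an IC50 in retests scored well above the rest). The assay is labelled LdHisRS but filed under L. infantum. About 69,000 compounds were tested under these conditions; 0.6% (about 410) showed 50% or more at least once.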
Pks13 thioesterase: 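Polyketide synthase Pks13, Mycobacterium tuberculosis (UniProt I6X8D2). Enzyme assay of the thioesterase domain of polyketide synthase 13; the read-out is not stated. Compounds at 30 µM. The record gives no direction; the compounds picked for IC50 retests had high values, so higher reads as stronger inhibition. Of about 67,000 compounds tested this way, about 300 (0.46%) reached 50% or more in at least one test.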
MtTrpRS: 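Enzyme assay of tryptophanyl-tRNA synthetase; the read-out is not stated. Target: Tryptophan-tRNA ligase, Mycobacterium tuberculosis (UniProt P9WFT3). Compounds at 10 µM. Higher most likely means stronger inhibition; the record gives no direction and few retests gave an IC50. Of about 65,000 compounds tested this way, about 64 (0.098%) reached 50% or more in at least one test.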
TcHisRS: 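Histidine-tRNA ligase, Trypanosoma cruzi CL Brener (UniProt Q4DA54). Enzyme assay of histidyl-tRNA synthetase; the read-out is not stated. Concentration: 30 µM. Direction is inferred from retests: higher values go with stronger inhibition. About 69,000 compounds were tested under these conditions; 0.045% (about 31) showed 50% or more at least once.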

The filed quantity is “Percent Effect” (%). The controls that fix the scale are not given in the record; negative values are as filed. This is an unselected part of the compounds tested.

CC(=O)N1CCN(C(=O)c2cnc(OC(C)C)c(Cl)c2)CC1 read LiHisRS: 17.6%; Pks13 thioesterase: -21.87%; MtTrpRS: -4.966%; TcHisRS: 1.961%. Cc1cc(Br)ccc1C(=O)NCCN1CCCCCC1 read LiHisRS: 25.84%; Pks13 thioesterase: -17.42%; MtTrpRS: 0.5663%; TcHisRS: 10.88%. With Cc1cnc(C(=O)N2CCCN(Cc3cnn(C(C)C)c3)CC2)cn1 the screen gave LiHisRS: 9.677%; Pks13 thioesterase: -14.15%; MtTrpRS: 1.018%; TcHisRS: -3.093%. Result for COc1ccc(COCC(=O)N2CCCC(n3cncn3)C2)cc1 (stereo not shown) was LiHisRS: 11.4%; Pks13 thioesterase: -17.41%; MtTrpRS: 7.768%; TcHisRS: -1.453%. Cn1cc(CN2CCCC(n3c(=O)oc4ccccc43)C2)cn1 (stereo not shown) gave LiHisRS: 8.696%; Pks13 thioesterase: 4.426%; MtTrpRS: -4.976%; TcHisRS: 7.576%. Cc1cccc(N2CCCN=C2NC(=O)c2cccc(Cl)c2)c1 gave LiHisRS: 12.07%; Pks13 thioesterase: -15.22%; MtTrpRS: -1.813%; TcHisRS: 1.739%. For CC(O)CN1CCC(CN(C)Cc2ccc(C#N)cc2F)CC1 (stereo not shown) the result was LiHisRS: 18.31%; Pks13 thioesterase: -38.41%; MtTrpRS: -1.514%; TcHisRS: 3.185%.

Result for CC(C)(C)N1CC(C(=O)NCc2cn3cccnc3n2)CC1=O (stereo not shown) was LiHisRS: 19.17%; Pks13 thioesterase: 10.14%; MtTrpRS: -6.368%; TcHisRS: 6.763%. Result for CC1(C)CN(CC(F)(F)F)CCN1CC(=O)N1CCCCC1 was LiHisRS: 13.33%; Pks13 thioesterase: -6.932%; MtTrpRS: 2.716%; TcHisRS: 4.762%. Result for CCc1cc(=O)n(CCNC(=O)Nc2ccc(OC(F)(F)F)cc2)cn1 was LiHisRS: 14.67%; Pks13 thioesterase: -7.968%; MtTrpRS: 1.877%; TcHisRS: 2.646%. Nc1ncccc1CN1CCCn2nc(CCC(=O)NC3CC3)cc2C1 read LiHisRS: 15.73%; Pks13 thioesterase: -6.227%; MtTrpRS: 2.348%; TcHisRS: 3.518%. CCN(Cc1ccoc1)C(=O)C1CN(C(=O)OC(C)(C)C)C1 gave LiHisRS: 2.041%; Pks13 thioesterase: -12.91%; MtTrpRS: 3.401%; TcHisRS: 3.077%. Result for COc1cc2c(cc1CNC(Cc1cccs1)c1nccs1)OCCO2 (stereo not shown) was LiHisRS: 14.49%; Pks13 thioesterase: 13.71%; MtTrpRS: -3.87%; TcHisRS: 6.818%. Result for Cn1cc(CCNCc2cc(Cl)c3c(c2)OCCO3)cn1 was LiHisRS: 20.18%; Pks13 thioesterase: -12.15%; MtTrpRS: -0.312%; TcHisRS: 7.647%.

For COC(=O)Cn1c(=O)nc2n1C(=O)N(c1cccc(Cl)c1)C2 the result was LiHisRS: 23.38%; Pks13 thioesterase: -22.06%; MtTrpRS: -0.618%; TcHisRS: -2.424%. For CCn1cc(CNCc2ccc(C(=O)OC)cc2)c(C)n1 the result was LiHisRS: 12.37%; Pks13 thioesterase: 10.08%; TcHisRS: 1.156%. With CC(Cn1cccn1)NC(=O)Cc1csc(C(C)C)n1 (stereo not shown) the screen gave LiHisRS: 10.34%; Pks13 thioesterase: -5.002%; MtTrpRS: -3.635%; TcHisRS: 5.085%. Cn1nc(CN2CCCC2)c2c1CN(C(=O)c1ccncc1F)CC2 gave LiHisRS: 10.53%; Pks13 thioesterase: -40.88%; MtTrpRS: -3.466%; TcHisRS: 5.464%. With O=C(Cn1ncc2ccccc21)Nc1ccnn1CC1CCOC1 (stereo not shown) the screen gave LiHisRS: 14.63%; Pks13 thioesterase: 2.737%; MtTrpRS: -2.376%; TcHisRS: 5.288%. Result for C=C(C)CN1CCC(NC(=O)NCCc2ccccc2OC)CC1 was LiHisRS: 20.55%; Pks13 thioesterase: -25.18%; MtTrpRS: 1.146%; TcHisRS: -1.97%. For CCOc1ccc(CC(=O)N2CCCC(n3nc(C)nc3C)C2)cc1 (stereo not shown) the result was LiHisRS: 5.217%; Pks13 thioesterase: -17.79%; MtTrpRS: 2.337%; TcHisRS: 0%.

O=C(NCCn1ccnc1)c1ccn(-c2ccccc2)n1 gave LiHisRS: 21.93%; Pks13 thioesterase: -22.7%; MtTrpRS: -7.72%; TcHisRS: 4.046%. Result for Cc1c(C2N3C[C@]4(C)CN2C[C@](C)(C3)C4=O)[nH]c(=O)[nH]c1=O (stereo partly shown) was LiHisRS: 8.696%; Pks13 thioesterase: 13.09%; MtTrpRS: 3.352%; TcHisRS: 6%. Result for O=C1CCCN1CC1CN(C(=O)C2CCOCC2)Cc2nccn2C1 (stereo not shown) was LiHisRS: 15.04%; Pks13 thioesterase: 3.125%; MtTrpRS: 1.036%; TcHisRS: 4.301%. With Cc1cnc(N2CCCC3(CCCN(C)C3)C2)nc1 (stereo not shown) the screen gave LiHisRS: 11.43%; Pks13 thioesterase: -14.25%; MtTrpRS: 3.865%; TcHisRS: 0%. CC[C@@H](CO)Nc1cc(-c2cn[nH]c2)ncn1 read LiHisRS: 2.857%; Pks13 thioesterase: 1.766%; TcHisRS: 5.65%. For Cn1ccc2ccc(C(=O)Nc3nc[nH]n3)cc21 the result was LiHisRS: 18.42%; Pks13 thioesterase: 6.033%; MtTrpRS: 4.976%; TcHisRS: -17.07%. CSCC[C@H](NC(C)=O)c1nc(CC(C)C)n[nH]1 gave LiHisRS: 18.57%; Pks13 thioesterase: -15.49%; MtTrpRS: 7.04%; TcHisRS: 1.064%.

CCC1CN(CCC(=O)N(C)C)CCN1CCOC (stereo not shown) gave LiHisRS: 50%; Pks13 thioesterase: -8.566%; MtTrpRS: -4.46%; TcHisRS: 7.519%.

Some entries from above, unchanged:

Compound,LiHisRS,Pks13 thioesterase,MtTrpRS,TcHisRS
O=C(Cn1ncc2ccccc21)Nc1ccnn1CC1CCOC1 (stereo not shown),14.63%,2.737%,-2.376%,5.288%
C=C(C)CN1CCC(NC(=O)NCCc2ccccc2OC)CC1,20.55%,-25.18%,1.146%,-1.97%
Cc1cnc(N2CCCC3(CCCN(C)C3)C2)nc1 (stereo not shown),11.43%,-14.25%,3.865%,0%